# In PubChem BioAssay AID2685 (National Center for Advancing Translational Sciences (NCATS), 2010):
# This is one part of the list. Shown are side measurements of this screen, not its main read-out; they come without a call. Compounds called inactive in the main read-out are mostly missing here. Potencies come from curve fits of mixed quality, noted in brackets.
# Assay: qHTS Assay for Lipid Storage Modulators in Drosophila S3 Cells;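 on cell number change: cells counted by Cell Tracker Red CMTPX staining in the red channel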
# Conditions: BODIPY lipid droplet fluorescence, 18-24 h; for cell number change: measured here: cell count max response, cells fed with added oleic acid
# Outline: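 Drosophila S3 cells loaded with oleic acid (400 uM, as added) and compounds at several concentrations; lipid droplets imaged by 488-nm laser-scanning cytometry, 500–530 nm intensity and object ratio to cell channel. Percent activity normalized to 20 uM Triacsin C.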
# [1] = measured here: cell number channel AC50, cells fed with added oleic acid
# [2] = measured here: lipid fluorescence (Fed channel) AC50, cells fed with added oleic acid
smiles,measurement,setting,value
Brc1cccc(-c2nnc3sc(CN4CCC5(CC4)OCCO5)cn23)c1,AC50,[1],"5.17 µM [rising, single point]"
same,AC50,[2],"6.51 µM [rising, single point]"
COc1ccc(CN(Cc2nc3ccccc3c(=O)[nH]2)C(=O)NC2CCCCC2)cc1,cell number change,,-9.84%
CC(=O)NS(=O)(=O)c1ccc(NC(=S)NC(=O)COc2ccccc2C)cc1,cell number change,,14.6%
same,AC50,[1],"2.06 µM [rising, partial curve]"
same,AC50,[2],"2.31 µM [falling, partial curve]"
CC(=C/c1ccccc1)/C=N/NC(=O)c1nnn(-c2nonc2N)c1CN1CCC(C)CC1,cell number change,,15.9%
same,AC50,[2],"6.51 µM [falling, single point]"
O=S(=O)(Cc1ccc(Cl)cc1)CC(O)COCc1ccccc1 (configuration not stated),AC50,[2],"0.13 µM [falling, full curve]"
O=C(CNC(=O)c1cc(=O)[nH]c2ccccc12)Nc1ccc(F)c(F)c1,cell number change,,-11.9%
COc1ccc(S(=O)(=O)N(CC(=O)NCC2CCCO2)c2ccc(F)cc2)cc1OC (configuration not stated),AC50,[1],"0.651 µM [rising, single point]"
same,AC50,[2],"29.1 µM [rising, single point]"
Cc1nnc(NC(=O)CSc2nnc(Cc3ccccc3)n2Cc2ccccc2)s1,cell number change,,3.64%
CC1CCC(NC(=O)CCNC(=O)c2ccccc2)CC1 (configuration not stated),cell number change,,-100%
same,AC50,[1],"18.4 µM [falling, partial curve, poor fit]"
same,AC50,[2],"29.1 µM [falling, partial curve, poor fit]"
Cc1noc(C)c1-c1nc(CSc2ccccc2)no1,cell number change,,-0.264%
same,AC50,[2],"3.26 µM [rising, partial curve, poor fit]"
O=C(CN1C(=O)CSc2ccccc21)Nc1ccc2c(c1)OCCO2,AC50,[1],"2.31 µM [rising, partial curve]"
same,AC50,[2],"4.11 µM [rising, partial curve]"
C=CCOc1ccc2ccccc2c1/C=N/O,cell number change,,-21.4%
same,AC50,[2],"0.013 µM [falling, full curve, poor fit]"
O=C(Nc1ccc(S(=O)(=O)Nc2ccccn2)cc1)c1cccc(Br)c1,cell number change,,-1.62%
same,AC50,[2],"29.1 µM [falling, single point]"
CC(CC(=O)Nc1ccc(S(=O)(=O)Nc2ncccn2)cc1)c1ccccc1 (configuration not stated),cell number change,,12.2%
same,AC50,[2],"8.2 µM [rising, partial curve, poor fit]"
CCCN(CC(=O)Nc1ccccc1OC)C(=O)CCNC(=O)c1ccccc1OC,cell number change,,28.9%
same,AC50,[2],"3.66 µM [rising, full curve]"
Cc1ccccc1OCCC(=O)OCC(=O)NC1CCCC1,cell number change,,-29%
same,AC50,[1],"2.91 µM [falling, single point]"
same,AC50,[2],"18.4 µM [falling, partial curve]"
O=C(CN1C(=O)NC2(CCCCC2)C1=O)Nc1cccc2ncccc12,cell number change,,-18.4%
Cc1cc(C)c2c(=O)n(-c3ccccc3)[nH]c2n1,cell number change,,-20.9%
same,AC50,[2],"0.00461 µM [rising, full curve, poor fit]"
CCOC(=O)c1c(-c2ccsc2)csc1N,cell number change,,-30.2%
same,AC50,[1],"29.1 µM [falling, single point]"
NS(=O)(=O)c1cc([N+](=O)[O-])ccc1NCc1cccnc1,cell number change,,33.8%
same,AC50,[1],"0.82 µM [rising, full curve, poor fit]"
same,AC50,[2],"1.03 µM [rising, full curve, poor fit]"
CN(CC(=O)Nc1ccc(F)cc1)C(=O)c1ccccc1OCc1ccc(F)cc1,AC50,[2],"5.8 µM [rising, partial curve, poor fit]"
Cn1c(=O)c2c(ncn2CC(=O)OCC(=O)c2ccc(Cl)cc2)n(C)c1=O,cell number change,,1.07%
CCOCCCNCc1ccc(OCC(=O)N2CCOCC2)c(OC)c1,cell number change,,8.71%
Cn1c(=O)c2cc(S(=O)(=O)Nc3cc(C(=O)O)cc(C(=O)O)c3)ccc2n(C)c1=O,cell number change,,-9.28%
same,AC50,[2],"25.9 µM [rising, single point]"
O=C(CSc1ccccc1)N1CCc2ccccc21,AC50,[1],"1.3 µM [rising, partial curve]"
Nc1nc(SCC(=O)N2CCOCC2)[nH]c(=O)c1-c1ccccc1,cell number change,,19.6%
same,AC50,[2],"6.51 µM [falling, single point]"
COc1ccc(OC)c(NC(=O)CCc2nnc3ccc(N4CCC(C)CC4)nn23)c1,cell number change,,11.8%
Cc1cc(O)c2/c(=N\N)c(-c3csc(C)n3)coc2c1,cell number change,,29.3%
same,AC50,[1],"1.46 µM [rising, full curve, poor fit]"
same,AC50,[2],"1.46 µM [rising, full curve, poor fit]"
CCOc1ccc2nc(NC(=O)CN3C(=O)C4CCCCC4C3=O)sc2c1 (configuration not stated),cell number change,,-12.2%
COc1ccc(CC(NC(C)=O)C(=O)NC2CCN(C(=O)C3CCCCC3)CC2)c(OC)c1 (configuration not stated),cell number change,,-0.833%
Cc1nc2ccc(NC(=O)c3cccnc3)cc2s1,cell number change,,1.62%
C=C1C[C@@]23CCC4[C@@](C)(CCC[C@@]4(C)C(=O)OC)C2CC[C@]1(OC(C)=O)C3 (some centres not stated),cell number change,,-55.5%
same,AC50,[1],"4.61 µM [falling, single point]"
same,AC50,[2],"0.116 µM [rising, full curve, poor fit]"
COc1ccc(NC(=O)CSCC(=O)N2CCN(c3cccc(C(F)(F)F)c3)CC2)cc1,cell number change,,-17.7%
Cc1cc(NC(=O)COc2cccc([N+](=O)[O-])c2)no1,cell number change,,0.54%
same,AC50,[2],"23.1 µM [falling, single point]"
O=C(CCCN1C(=O)c2cccnc2C1=O)Nc1ccc(F)cc1Cl,cell number change,,84.7%
same,AC50,[1],"16.4 µM [rising, partial curve]"
same,AC50,[2],"0.58 µM [rising, single point]"
CN(C)C(=O)CCC(=O)N1CCCC(N2CCN(c3cccc(C(F)(F)F)c3)CC2)C1 (configuration not stated),cell number change,,-6.04%
same,AC50,[2],"0.00731 µM [rising, full curve, poor fit]"
COc1cccc(/C=N/n2c(-c3ccco3)nc3ccccc3c2=O)c1OC,cell number change,,-2.9%
same,AC50,[2],"6.51 µM [rising, single point]"
CC(C)=CCN1CCC(n2nccc2NC(=O)c2ccccc2Cl)CC1,cell number change,,20%
same,AC50,[2],"18.4 µM [rising, single point]"
COc1ccccc1NC(=O)CCC(=O)Nc1nnc(C(F)(F)F)s1,cell number change,,-5.82%
same,AC50,[1],"6.51 µM [falling, single point]"
same,AC50,[2],"0.651 µM [falling, full curve]"
COc1ccc(C)cc1S(=O)(=O)N1CCN(C(=O)c2ncoc2-c2ccccc2C)CC1,cell number change,,3.95%
same,AC50,[1],"0.651 µM [rising, partial curve]"
COCCNC(=O)COC(=O)c1cc(-c2ccc(OC)cc2)nc2ccccc12,AC50,[1],"0.517 µM [rising, partial curve, poor fit]"
same,AC50,[2],"0.58 µM [rising, partial curve, poor fit]"
C=CC(=O)OCCOCCOCCOCCOC(=O)C=C,cell number change,,12.7%
same,AC50,[2],"23.1 µM [rising, single point]"
O=C(c1ccc(F)cc1)C(CN1CCOCC1)c1ccccc1 (configuration not stated),cell number change,,-53.2%
same,AC50,[1],"25.9 µM [falling, partial curve]"
same,AC50,[2],"29.1 µM [falling, partial curve]"
COc1cccc(C(=O)Nc2ccc(S(=O)(=O)N3CCN(C)CC3)cc2)c1,cell number change,,0.952%
same,AC50,[2],"2.31 µM [falling, partial curve]"
COc1cc(C(=O)NCCOc2cccc(C)c2)c(Br)c(OC)c1OC,cell number change,,-6.97%
CN(C)S(=O)(=O)n1cc(/C=C(\NC(=O)c2ccccc2)C(=O)NCCCN2CCOCC2)c2ccccc21,cell number change,,24.5%
same,AC50,[2],"6.51 µM [rising, single point]"
COc1ccc(OC)c(S(=O)(=O)Nc2cc3c(cc2N2CCCC2)n(C)c(=O)c(=O)n3C)c1,cell number change,,6.87%
CCOc1cccc2sc(N3CCN(C(=O)c4ccc5ncsc5c4)CC3)nc12,cell number change,,38.5%
same,AC50,[1],"0.058 µM [rising, full curve, poor fit]"
CCOC(=O)C1=C(C)NC(c2cccs2)C(=O)N1 (configuration not stated),cell number change,,-3.78%
same,AC50,[2],"29.1 µM [falling, single point]"
Cn1nnnc1SCC(=O)NC1CCCC1,cell number change,,-5.13%
same,AC50,[2],"0.13 µM [rising, partial curve, poor fit]"
COc1ccc(N/N=C(/C(N)=O)C2=NC(C)(C)Cc3ccccc32)cc1,cell number change,,-78.2%
same,AC50,[1],"29.1 µM [falling, single point]"
same,AC50,[2],"29.1 µM [falling, single point]"
CC(=O)N1CCN(S(=O)(=O)c2cccc(C(=O)NNC(=O)COc3ccc(F)cc3)c2)CC1,cell number change,,19%
same,AC50,[2],"18.4 µM [rising, single point]"
CC(=O)Nc1ccc(NS(=O)(=O)c2cc(-c3n[nH]c(=O)c4ccccc34)ccc2C)cc1,cell number change,,1.07%
CCN1CCN(CC(=O)Nc2nc3ccc(OC)cc3s2)CC1,cell number change,,6.83%
same,AC50,[2],"0.58 µM [falling, single point]"
Cc1c(-c2cccc(Cl)c2)nc2ccccc2c1C(=O)OC/C(O)=C(\C#N)c1nc2ccccc2[nH]1,cell number change,,-56.2%
same,AC50,[1],"23.1 µM [falling, single point]"
same,AC50,[2],"18.4 µM [falling, single point]"
C=CC[n+]1c(-c2ccc(C)cc2)csc1NNC(=O)Nc1ccccc1,cell number change,,-41.9%
same,AC50,[1],"0.92 µM [falling, full curve]"
same,AC50,[2],"25.9 µM [falling, partial curve, poor fit]"
C[C@H]1CN=C(N(C)C)N1CCc1cccc(F)c1,cell number change,,-32.8%
same,AC50,[1],"0.517 µM [falling, partial curve]"
CS(=O)(=O)c1ccc(C(=O)Nc2ccc(N3CCCC3)cc2)c(Cl)c1,cell number change,,16.3%
same,AC50,[2],"4.61 µM [falling, single point]"

# Reformatted: results already given.
smiles	measurement	setting	value
Brc1cccc(-c2nnc3sc(CN4CCC5(CC4)OCCO5)cn23)c1	AC50	[1]	5.17 µM [rising, single point]
CC(=O)NS(=O)(=O)c1ccc(NC(=S)NC(=O)COc2ccccc2C)cc1	AC50	[1]	2.06 µM [rising, partial curve]
O=S(=O)(Cc1ccc(Cl)cc1)CC(O)COCc1ccccc1 (configuration not stated)	AC50	[2]	0.13 µM [falling, full curve]
COc1ccc(S(=O)(=O)N(CC(=O)NCC2CCCO2)c2ccc(F)cc2)cc1OC (configuration not stated)	AC50	[1]	0.651 µM [rising, single point]
Cc1nnc(NC(=O)CSc2nnc(Cc3ccccc3)n2Cc2ccccc2)s1	cell number change		3.64%
Cc1noc(C)c1-c1nc(CSc2ccccc2)no1	AC50	[2]	3.26 µM [rising, partial curve, poor fit]
CC(CC(=O)Nc1ccc(S(=O)(=O)Nc2ncccn2)cc1)c1ccccc1 (configuration not stated)	cell number change		12.2%
CCCN(CC(=O)Nc1ccccc1OC)C(=O)CCNC(=O)c1ccccc1OC	cell number change		28.9%
Cc1ccccc1OCCC(=O)OCC(=O)NC1CCCC1	AC50	[1]	2.91 µM [falling, single point]
same	AC50	[2]	18.4 µM [falling, partial curve]
NS(=O)(=O)c1cc([N+](=O)[O-])ccc1NCc1cccnc1	AC50	[2]	1.03 µM [rising, full curve, poor fit]
CN(CC(=O)Nc1ccc(F)cc1)C(=O)c1ccccc1OCc1ccc(F)cc1	AC50	[2]	5.8 µM [rising, partial curve, poor fit]
CCOCCCNCc1ccc(OCC(=O)N2CCOCC2)c(OC)c1	cell number change		8.71%
Nc1nc(SCC(=O)N2CCOCC2)[nH]c(=O)c1-c1ccccc1	cell number change		19.6%
Cc1cc(O)c2/c(=N\N)c(-c3csc(C)n3)coc2c1	cell number change		29.3%
C=C1C[C@@]23CCC4[C@@](C)(CCC[C@@]4(C)C(=O)OC)C2CC[C@]1(OC(C)=O)C3 (some centres not stated)	cell number change		-55.5%
O=C(CCCN1C(=O)c2cccnc2C1=O)Nc1ccc(F)cc1Cl	cell number change		84.7%
COc1cccc(/C=N/n2c(-c3ccco3)nc3ccccc3c2=O)c1OC	cell number change		-2.9%
CC(C)=CCN1CCC(n2nccc2NC(=O)c2ccccc2Cl)CC1	cell number change		20%
COc1ccccc1NC(=O)CCC(=O)Nc1nnc(C(F)(F)F)s1	cell number change		-5.82%
COc1ccc(C)cc1S(=O)(=O)N1CCN(C(=O)c2ncoc2-c2ccccc2C)CC1	AC50	[1]	0.651 µM [rising, partial curve]
COCCNC(=O)COC(=O)c1cc(-c2ccc(OC)cc2)nc2ccccc12	AC50	[1]	0.517 µM [rising, partial curve, poor fit]
same	AC50	[2]	0.58 µM [rising, partial curve, poor fit]
C=CC(=O)OCCOCCOCCOCCOC(=O)C=C	AC50	[2]	23.1 µM [rising, single point]
CN(C)S(=O)(=O)n1cc(/C=C(\NC(=O)c2ccccc2)C(=O)NCCCN2CCOCC2)c2ccccc21	AC50	[2]	6.51 µM [rising, single point]
Cn1nnnc1SCC(=O)NC1CCCC1	cell number change		-5.13%
COc1ccc(N/N=C(/C(N)=O)C2=NC(C)(C)Cc3ccccc32)cc1	cell number change		-78.2%
same	AC50	[1]	29.1 µM [falling, single point]
CC(=O)Nc1ccc(NS(=O)(=O)c2cc(-c3n[nH]c(=O)c4ccccc34)ccc2C)cc1	cell number change		1.07%
Cc1c(-c2cccc(Cl)c2)nc2ccccc2c1C(=O)OC/C(O)=C(\C#N)c1nc2ccccc2[nH]1	cell number change		-56.2%
same	AC50	[2]	18.4 µM [falling, single point]
C=CC[n+]1c(-c2ccc(C)cc2)csc1NNC(=O)Nc1ccccc1	cell number change		-41.9%
